Experimental findings from paper PMC7325893 are described below.

No constants are given. Whether binding was seen depends on the method and setting. Binding seen in cells or lysates may run through a third protein. Some entries that bind do so weakly or less than the wild type.

The target of the assay is T1, cellugyrin (synaptogyrin-2) (human (endogenous in THP-1)) (UniProt O43760).
T1 sequence: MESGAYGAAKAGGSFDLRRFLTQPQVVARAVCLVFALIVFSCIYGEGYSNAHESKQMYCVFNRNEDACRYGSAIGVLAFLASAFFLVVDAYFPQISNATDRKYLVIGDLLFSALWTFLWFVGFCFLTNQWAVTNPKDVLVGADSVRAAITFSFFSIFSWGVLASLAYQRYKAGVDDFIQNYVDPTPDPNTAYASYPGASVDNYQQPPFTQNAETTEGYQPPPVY
The assay can be described thus: co-IP.

B1: Derlin-2 (protein, UniProt Q9GZP9 1-239)
chain: MAYQSLRLEYLQIPPVSRAYTTACVLTTAAVQLELITPFQLYFNPELIFKHFQIWRLITNFLFFGPVGFNFLFNMIFLYRYCRMLEEGSFRGRTADFVFMFLFGGFLMTLFGLFVSLVFLGQAFTIMLVYVWSRRNPYVRMNFFGLLNFQAPFLPWVLMGFSLLLGNSIIVDLLGIAVGHIYFFLEDVFPNQPGGIRILKTPSILKAIFDTPDEDPNYNPLPEERPGGFAWGEGQRLGG
As to B1, the binding entry is reported as “binds”.
